Measurements taken from paper PMC9556925.

Sequences of proteins named here, by UniProt entry; tags and fusion partners are left off.
UniProt P35568: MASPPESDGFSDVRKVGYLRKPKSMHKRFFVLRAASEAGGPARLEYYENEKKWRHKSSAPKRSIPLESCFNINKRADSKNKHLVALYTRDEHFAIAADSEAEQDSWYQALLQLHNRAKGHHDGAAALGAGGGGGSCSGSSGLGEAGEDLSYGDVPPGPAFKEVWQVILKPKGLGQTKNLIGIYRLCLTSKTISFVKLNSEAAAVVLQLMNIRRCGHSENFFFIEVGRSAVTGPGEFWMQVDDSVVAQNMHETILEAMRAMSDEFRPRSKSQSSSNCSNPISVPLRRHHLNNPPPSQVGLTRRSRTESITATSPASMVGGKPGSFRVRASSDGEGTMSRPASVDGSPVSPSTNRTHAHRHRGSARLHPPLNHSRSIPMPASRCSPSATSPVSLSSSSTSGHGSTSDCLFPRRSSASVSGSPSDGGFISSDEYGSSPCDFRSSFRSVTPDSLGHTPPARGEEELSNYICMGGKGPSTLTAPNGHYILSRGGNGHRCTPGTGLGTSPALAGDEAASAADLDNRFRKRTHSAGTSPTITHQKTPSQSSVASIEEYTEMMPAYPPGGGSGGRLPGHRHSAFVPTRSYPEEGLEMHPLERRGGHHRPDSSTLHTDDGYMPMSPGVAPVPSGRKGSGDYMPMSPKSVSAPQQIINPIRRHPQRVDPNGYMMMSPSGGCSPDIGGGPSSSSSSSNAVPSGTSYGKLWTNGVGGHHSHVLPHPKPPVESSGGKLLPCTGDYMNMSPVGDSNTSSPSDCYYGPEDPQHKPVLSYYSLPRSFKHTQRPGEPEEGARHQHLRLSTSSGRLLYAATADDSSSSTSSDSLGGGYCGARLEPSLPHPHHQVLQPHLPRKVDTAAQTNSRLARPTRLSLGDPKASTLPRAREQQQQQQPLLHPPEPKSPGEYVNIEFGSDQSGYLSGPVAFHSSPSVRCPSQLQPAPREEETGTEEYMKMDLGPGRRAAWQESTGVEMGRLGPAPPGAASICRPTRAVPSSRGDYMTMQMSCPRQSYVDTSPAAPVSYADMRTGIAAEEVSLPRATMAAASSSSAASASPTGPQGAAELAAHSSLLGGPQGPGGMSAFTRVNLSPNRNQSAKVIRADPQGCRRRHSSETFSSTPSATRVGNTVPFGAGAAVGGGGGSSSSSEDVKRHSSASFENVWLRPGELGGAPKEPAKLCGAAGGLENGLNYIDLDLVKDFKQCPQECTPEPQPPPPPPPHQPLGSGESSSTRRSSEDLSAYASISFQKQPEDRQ

Target: IRS1-BirA*-Flag (human) (UniProt P35568)
Test: proximity labelling; BioID: IRS1-BirA*-Flag stably expressed in Flp-In 293 T-REx cells, 24 h with 1 ug/mL tetracycline and 50 uM biotin; streptavidin pull-down, mass spectrometry; SAINT against FlagBirA* alone, BFDR <=0.01

binding: binds
B1: DDB1- and CUL4-associated factor 7 (DCAF7) (protein, UniProt P61962 1-342)
chain: MSLHGKRKEIYKYEAPWTVYAMNWSVRPDKRFRLALGSFVEEYNNKVQLVGLDEESSEFICRNTFDHPYPTTKLMWIPDTKGVYPDLLATSGDYLRVWRVGETETRLECLLNNNKNSDFCAPLTSFDWNEVDPYLLGTSSIDTTCTIWGLETGQVLGRVNLVSGHVKTQLIAHDKEVYDIAFSRAGGGRDMFASVGADGSVRMFDLRHLEHSTIIYEDPQHHPLLRLCWNKQDPNYLATMAMDGMEVVILDVRVPCTPVARLNNHRACVNGIAWAPHSSCHICTAADDHQALIWDIQQMPRAIEDPILAYTAEGEINNVQWASTQPDWIAICYNNCLEILRV

Results are given in words; binding and its absence hold for the method and conditions named. In cells and extracts the contact can be indirect. Here binding means that the protein was enriched with, or labelled near, the bait; the list need not be complete.
